We go through 2 substances from doi:10.1101/2024.02.17.580811.

Amino acid sequences for entries named in this document (tags omitted).
UniProt P24782: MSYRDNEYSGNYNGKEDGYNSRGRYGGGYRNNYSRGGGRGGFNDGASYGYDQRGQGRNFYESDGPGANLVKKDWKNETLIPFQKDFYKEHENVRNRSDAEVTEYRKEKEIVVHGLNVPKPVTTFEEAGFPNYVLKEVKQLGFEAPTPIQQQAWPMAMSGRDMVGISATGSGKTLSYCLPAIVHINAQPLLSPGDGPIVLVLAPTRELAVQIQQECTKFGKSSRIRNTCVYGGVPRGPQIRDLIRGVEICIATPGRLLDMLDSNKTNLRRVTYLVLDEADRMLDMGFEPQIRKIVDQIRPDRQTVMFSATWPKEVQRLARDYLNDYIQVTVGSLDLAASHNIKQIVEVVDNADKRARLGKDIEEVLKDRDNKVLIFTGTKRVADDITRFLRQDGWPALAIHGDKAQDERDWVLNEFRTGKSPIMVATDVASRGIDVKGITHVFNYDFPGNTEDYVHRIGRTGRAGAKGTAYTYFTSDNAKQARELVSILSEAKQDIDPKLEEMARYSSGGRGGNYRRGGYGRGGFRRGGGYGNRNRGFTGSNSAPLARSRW
UniProt Q92355: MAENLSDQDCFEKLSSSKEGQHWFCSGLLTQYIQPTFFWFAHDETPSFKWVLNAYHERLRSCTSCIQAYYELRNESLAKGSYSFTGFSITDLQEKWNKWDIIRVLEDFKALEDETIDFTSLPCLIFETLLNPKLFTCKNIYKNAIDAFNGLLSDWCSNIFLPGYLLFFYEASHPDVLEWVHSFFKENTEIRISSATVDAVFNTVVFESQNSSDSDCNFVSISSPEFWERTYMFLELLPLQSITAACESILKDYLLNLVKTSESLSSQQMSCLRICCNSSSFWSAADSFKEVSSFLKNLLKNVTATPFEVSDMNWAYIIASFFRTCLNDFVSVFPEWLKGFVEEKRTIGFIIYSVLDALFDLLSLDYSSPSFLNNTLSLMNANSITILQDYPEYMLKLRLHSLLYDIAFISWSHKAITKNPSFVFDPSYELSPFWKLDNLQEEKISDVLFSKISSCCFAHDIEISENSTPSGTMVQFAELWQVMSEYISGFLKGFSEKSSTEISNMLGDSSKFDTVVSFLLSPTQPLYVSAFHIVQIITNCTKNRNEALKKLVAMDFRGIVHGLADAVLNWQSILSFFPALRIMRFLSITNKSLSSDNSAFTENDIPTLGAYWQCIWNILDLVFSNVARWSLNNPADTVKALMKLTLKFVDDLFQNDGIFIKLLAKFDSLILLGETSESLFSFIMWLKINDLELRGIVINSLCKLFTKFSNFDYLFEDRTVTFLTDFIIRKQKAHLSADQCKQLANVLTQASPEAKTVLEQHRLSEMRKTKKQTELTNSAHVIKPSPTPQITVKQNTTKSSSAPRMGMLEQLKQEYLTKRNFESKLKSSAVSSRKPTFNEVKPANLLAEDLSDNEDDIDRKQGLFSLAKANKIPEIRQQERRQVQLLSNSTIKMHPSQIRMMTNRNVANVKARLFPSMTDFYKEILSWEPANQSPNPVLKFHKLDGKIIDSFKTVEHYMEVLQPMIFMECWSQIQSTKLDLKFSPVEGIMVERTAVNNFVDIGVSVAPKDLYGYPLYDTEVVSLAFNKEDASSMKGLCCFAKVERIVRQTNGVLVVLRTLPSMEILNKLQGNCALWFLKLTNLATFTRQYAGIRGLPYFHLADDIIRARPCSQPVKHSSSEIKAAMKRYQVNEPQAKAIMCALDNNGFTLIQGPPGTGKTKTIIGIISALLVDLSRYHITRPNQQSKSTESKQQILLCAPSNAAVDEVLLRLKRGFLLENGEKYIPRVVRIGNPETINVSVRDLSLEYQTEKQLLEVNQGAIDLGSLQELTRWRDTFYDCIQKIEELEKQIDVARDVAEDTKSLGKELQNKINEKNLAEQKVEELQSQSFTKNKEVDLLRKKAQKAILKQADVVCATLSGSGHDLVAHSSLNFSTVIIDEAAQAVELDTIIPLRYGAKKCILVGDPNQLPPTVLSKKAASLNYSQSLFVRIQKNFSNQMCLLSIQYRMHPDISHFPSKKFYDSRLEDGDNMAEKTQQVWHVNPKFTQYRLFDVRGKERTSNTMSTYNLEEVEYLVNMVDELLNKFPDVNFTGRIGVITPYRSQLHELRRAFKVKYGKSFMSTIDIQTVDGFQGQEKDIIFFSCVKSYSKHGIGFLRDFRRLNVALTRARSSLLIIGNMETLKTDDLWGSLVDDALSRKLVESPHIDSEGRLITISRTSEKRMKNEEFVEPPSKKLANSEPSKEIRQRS
UniProt Q9UTN6: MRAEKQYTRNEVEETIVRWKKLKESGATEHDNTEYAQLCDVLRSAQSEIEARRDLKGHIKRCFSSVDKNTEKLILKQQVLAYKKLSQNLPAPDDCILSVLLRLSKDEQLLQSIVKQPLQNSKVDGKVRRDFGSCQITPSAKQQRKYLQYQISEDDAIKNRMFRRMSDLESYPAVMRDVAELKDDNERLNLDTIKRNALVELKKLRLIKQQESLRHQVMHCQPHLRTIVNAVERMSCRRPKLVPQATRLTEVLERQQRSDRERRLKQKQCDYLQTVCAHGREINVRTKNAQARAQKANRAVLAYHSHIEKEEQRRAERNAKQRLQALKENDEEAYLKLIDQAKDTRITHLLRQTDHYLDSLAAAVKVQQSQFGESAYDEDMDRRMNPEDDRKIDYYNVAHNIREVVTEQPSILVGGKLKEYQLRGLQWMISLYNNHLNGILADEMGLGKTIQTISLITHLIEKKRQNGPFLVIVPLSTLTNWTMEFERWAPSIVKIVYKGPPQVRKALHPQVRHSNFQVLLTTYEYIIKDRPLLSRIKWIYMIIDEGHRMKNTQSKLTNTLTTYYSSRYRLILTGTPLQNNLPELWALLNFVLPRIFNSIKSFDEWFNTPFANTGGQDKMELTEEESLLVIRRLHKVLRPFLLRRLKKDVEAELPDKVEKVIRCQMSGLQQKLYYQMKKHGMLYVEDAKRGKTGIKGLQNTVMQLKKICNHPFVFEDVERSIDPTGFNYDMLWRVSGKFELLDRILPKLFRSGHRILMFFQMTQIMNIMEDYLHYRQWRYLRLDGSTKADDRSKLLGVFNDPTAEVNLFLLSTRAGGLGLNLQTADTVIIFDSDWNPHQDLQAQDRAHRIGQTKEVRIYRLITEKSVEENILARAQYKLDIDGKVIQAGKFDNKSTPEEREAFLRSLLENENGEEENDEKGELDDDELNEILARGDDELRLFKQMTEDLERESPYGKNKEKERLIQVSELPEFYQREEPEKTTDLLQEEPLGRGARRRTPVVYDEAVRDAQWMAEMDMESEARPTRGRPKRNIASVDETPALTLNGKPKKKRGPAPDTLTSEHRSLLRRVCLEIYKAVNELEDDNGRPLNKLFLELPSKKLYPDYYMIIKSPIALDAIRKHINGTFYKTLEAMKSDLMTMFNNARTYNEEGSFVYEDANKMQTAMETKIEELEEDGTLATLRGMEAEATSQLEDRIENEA

One experiment concerns the target T1, Srp2-HTP (S. pombe) (UniProt P78814).
T1 sequence: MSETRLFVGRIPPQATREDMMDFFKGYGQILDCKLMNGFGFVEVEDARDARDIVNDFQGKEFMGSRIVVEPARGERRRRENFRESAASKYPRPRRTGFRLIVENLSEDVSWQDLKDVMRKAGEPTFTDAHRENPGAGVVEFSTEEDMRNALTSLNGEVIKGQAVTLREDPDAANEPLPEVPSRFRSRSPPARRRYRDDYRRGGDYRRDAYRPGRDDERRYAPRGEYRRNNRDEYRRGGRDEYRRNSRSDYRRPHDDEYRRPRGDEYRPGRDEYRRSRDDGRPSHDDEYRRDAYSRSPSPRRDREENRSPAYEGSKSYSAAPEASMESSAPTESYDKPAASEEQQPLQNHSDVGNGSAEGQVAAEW
Nature of the experiment: affinity purification with mass spectrometry.

A further experiment concerns the target Dbp2-HTP (S. pombe) (UniProt P24782). The experiment can be described thus: affinity purification with mass spectrometry.

No constants are given. Whether binding was seen depends on the method and setting. Binding seen in cells or lysates may run through a third protein. A yes stands for co-enrichment or nearness to the bait. Other partners may have been found.

Take “RNA/DNA helicase Sen1 (from UniProt Q92355 1-1687) (enzyme)”: the binding result with Srp2-HTP (S. pombe) and with Dbp2-HTP (S. pombe) was “binds” in each case.

With Snf21 (from UniProt Q9UTN6 1-1199), in the experiment with Dbp2-HTP (S. pombe), the binding result is recorded as “binds”.
